This note sets out measurements from the supplement of paper PMC6411743.

Sequences of proteins named here, by UniProt entry; tags and fusion partners are left off. A change or cut given only in a name is not applied to a line headed by its entry.
UniProt O43426, whole entry: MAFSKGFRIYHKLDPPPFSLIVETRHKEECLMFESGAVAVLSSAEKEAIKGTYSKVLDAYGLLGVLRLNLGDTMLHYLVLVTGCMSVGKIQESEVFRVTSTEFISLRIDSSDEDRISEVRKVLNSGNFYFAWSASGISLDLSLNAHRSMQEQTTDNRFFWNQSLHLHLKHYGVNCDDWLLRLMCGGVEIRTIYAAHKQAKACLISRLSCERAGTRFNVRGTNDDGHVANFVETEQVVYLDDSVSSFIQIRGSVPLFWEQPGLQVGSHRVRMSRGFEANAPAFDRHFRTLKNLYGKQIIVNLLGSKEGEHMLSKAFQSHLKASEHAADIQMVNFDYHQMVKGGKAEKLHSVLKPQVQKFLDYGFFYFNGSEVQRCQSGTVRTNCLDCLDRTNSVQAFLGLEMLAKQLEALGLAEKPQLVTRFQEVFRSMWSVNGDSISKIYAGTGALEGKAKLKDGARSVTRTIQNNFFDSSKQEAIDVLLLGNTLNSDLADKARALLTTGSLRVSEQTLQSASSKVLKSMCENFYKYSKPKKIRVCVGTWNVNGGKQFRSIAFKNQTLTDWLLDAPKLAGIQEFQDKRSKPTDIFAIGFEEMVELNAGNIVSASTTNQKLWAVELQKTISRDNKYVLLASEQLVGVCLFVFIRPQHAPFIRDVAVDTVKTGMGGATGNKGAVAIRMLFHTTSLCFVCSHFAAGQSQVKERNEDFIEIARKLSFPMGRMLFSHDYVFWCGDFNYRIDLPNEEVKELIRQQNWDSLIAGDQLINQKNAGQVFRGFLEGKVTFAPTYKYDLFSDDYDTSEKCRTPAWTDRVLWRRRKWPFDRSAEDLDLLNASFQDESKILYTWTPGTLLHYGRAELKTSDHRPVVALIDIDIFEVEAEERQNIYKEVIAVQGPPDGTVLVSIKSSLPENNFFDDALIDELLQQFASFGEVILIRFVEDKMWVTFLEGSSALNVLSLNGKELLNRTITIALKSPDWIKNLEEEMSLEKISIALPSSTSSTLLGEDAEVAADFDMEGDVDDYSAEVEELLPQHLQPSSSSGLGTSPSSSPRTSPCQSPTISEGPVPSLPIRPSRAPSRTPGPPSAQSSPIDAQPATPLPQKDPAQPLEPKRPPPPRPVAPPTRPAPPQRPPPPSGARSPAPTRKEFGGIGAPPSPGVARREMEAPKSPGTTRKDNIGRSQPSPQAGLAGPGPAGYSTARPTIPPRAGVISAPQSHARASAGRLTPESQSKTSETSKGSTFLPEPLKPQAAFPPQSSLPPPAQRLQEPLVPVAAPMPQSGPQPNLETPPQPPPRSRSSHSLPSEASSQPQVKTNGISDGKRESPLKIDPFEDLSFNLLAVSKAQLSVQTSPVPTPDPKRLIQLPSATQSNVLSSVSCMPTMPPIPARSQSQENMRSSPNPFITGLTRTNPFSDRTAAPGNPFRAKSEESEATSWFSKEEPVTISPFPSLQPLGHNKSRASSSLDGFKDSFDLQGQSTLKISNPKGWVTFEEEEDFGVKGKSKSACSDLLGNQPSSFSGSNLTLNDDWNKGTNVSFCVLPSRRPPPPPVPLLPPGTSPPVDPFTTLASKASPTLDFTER
UniProt Q9Y3T6: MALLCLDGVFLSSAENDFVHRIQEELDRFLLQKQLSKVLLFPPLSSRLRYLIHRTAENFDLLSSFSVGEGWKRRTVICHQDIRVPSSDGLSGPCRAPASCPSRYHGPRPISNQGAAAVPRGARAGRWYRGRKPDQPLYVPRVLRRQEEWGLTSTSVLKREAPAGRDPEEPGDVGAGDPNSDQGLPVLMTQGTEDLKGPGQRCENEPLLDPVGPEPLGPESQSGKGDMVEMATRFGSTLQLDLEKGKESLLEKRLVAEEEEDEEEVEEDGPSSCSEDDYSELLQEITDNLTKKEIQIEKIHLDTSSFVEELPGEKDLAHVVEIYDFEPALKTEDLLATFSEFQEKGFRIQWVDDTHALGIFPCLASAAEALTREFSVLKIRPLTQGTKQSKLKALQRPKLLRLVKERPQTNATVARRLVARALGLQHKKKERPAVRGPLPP
UniProt Q9NZT2: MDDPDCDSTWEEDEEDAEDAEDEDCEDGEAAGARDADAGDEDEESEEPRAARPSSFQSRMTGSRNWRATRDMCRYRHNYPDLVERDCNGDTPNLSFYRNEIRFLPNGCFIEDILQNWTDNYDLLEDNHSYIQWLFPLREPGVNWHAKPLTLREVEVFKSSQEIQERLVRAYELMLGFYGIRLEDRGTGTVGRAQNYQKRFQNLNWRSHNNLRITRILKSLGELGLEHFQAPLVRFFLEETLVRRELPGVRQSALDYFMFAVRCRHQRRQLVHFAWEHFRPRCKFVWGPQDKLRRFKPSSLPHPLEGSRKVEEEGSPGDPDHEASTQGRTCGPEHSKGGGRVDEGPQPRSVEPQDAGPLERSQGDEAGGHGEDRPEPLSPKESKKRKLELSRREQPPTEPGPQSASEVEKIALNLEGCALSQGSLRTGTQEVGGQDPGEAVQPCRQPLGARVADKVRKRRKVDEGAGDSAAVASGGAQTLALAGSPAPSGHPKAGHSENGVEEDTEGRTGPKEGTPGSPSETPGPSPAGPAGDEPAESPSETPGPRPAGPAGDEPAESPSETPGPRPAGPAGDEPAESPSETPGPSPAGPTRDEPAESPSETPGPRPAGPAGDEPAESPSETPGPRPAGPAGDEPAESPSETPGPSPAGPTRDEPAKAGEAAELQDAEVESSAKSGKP
UniProt Q9NWS8: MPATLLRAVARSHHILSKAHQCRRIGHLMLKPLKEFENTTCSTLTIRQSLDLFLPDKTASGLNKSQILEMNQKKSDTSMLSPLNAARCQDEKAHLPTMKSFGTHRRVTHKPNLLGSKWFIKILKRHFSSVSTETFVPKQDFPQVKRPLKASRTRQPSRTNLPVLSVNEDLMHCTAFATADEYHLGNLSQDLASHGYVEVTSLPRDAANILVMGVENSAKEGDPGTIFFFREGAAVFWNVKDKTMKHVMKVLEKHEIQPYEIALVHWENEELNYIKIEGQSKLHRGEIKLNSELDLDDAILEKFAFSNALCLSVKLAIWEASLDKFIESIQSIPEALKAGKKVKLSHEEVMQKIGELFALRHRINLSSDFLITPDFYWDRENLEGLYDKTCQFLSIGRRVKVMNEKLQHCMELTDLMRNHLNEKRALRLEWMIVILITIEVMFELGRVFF
UniProt Q03013: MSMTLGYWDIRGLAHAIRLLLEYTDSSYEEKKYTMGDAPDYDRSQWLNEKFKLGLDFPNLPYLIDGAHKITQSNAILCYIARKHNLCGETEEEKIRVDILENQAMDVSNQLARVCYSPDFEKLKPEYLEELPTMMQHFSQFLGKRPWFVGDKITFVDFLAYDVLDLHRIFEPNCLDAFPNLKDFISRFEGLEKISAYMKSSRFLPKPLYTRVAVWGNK
UniProt Q99836, whole entry: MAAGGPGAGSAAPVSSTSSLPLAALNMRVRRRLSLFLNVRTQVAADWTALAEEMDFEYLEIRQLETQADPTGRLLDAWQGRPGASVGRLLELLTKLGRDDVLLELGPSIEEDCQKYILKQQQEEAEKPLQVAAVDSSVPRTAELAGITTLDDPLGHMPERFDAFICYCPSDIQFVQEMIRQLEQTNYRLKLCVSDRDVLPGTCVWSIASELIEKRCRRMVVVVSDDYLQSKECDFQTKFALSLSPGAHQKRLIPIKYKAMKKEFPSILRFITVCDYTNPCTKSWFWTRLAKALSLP
UniProt Q99798: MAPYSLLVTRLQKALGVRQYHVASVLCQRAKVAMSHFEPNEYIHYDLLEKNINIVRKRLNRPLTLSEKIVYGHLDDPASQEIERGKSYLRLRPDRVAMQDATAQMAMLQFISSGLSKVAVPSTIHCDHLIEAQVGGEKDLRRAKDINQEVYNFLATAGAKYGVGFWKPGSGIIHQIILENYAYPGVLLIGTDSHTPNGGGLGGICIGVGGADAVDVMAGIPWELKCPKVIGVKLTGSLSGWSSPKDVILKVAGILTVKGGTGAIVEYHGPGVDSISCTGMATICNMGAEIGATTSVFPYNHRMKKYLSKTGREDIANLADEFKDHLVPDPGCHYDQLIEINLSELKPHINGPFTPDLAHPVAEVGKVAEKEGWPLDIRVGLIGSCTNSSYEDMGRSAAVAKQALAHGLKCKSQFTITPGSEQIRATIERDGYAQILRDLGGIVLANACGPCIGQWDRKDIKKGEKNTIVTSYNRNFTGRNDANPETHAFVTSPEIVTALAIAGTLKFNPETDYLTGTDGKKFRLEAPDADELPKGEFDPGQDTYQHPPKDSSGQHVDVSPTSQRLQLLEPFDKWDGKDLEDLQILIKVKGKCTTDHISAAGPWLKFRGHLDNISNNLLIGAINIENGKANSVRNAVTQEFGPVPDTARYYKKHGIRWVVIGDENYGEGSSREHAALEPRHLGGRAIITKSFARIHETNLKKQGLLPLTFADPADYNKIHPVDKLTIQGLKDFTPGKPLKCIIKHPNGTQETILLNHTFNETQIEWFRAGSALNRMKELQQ
UniProt Q6GTX8: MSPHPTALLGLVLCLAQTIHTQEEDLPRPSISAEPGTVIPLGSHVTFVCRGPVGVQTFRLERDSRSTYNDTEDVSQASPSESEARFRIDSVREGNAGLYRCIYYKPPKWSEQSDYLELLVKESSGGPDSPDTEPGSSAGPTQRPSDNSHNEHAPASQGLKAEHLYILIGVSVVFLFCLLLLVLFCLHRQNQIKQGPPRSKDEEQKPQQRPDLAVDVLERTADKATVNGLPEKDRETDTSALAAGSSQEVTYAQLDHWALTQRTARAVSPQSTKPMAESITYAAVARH
UniProt O14639: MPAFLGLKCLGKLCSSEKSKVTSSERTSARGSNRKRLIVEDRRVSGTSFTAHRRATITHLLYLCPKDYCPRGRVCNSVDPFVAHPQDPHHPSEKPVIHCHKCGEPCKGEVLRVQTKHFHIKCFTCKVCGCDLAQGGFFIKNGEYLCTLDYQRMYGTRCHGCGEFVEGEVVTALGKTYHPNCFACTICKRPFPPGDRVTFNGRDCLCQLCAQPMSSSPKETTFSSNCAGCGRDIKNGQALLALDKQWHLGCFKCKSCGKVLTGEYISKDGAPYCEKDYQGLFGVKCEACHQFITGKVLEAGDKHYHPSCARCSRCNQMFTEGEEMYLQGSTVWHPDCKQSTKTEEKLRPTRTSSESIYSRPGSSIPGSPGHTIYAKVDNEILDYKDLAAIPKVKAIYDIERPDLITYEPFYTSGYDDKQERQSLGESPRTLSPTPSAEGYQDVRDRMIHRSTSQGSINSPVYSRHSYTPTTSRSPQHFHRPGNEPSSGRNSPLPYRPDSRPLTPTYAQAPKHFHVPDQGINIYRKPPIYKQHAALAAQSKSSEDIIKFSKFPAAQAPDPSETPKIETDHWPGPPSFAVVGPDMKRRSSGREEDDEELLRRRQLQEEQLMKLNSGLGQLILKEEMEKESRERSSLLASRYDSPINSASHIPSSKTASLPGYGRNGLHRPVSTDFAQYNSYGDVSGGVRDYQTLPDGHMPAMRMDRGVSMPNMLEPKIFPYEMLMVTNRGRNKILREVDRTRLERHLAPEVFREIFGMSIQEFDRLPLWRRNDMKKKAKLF
UniProt Q7Z3E5: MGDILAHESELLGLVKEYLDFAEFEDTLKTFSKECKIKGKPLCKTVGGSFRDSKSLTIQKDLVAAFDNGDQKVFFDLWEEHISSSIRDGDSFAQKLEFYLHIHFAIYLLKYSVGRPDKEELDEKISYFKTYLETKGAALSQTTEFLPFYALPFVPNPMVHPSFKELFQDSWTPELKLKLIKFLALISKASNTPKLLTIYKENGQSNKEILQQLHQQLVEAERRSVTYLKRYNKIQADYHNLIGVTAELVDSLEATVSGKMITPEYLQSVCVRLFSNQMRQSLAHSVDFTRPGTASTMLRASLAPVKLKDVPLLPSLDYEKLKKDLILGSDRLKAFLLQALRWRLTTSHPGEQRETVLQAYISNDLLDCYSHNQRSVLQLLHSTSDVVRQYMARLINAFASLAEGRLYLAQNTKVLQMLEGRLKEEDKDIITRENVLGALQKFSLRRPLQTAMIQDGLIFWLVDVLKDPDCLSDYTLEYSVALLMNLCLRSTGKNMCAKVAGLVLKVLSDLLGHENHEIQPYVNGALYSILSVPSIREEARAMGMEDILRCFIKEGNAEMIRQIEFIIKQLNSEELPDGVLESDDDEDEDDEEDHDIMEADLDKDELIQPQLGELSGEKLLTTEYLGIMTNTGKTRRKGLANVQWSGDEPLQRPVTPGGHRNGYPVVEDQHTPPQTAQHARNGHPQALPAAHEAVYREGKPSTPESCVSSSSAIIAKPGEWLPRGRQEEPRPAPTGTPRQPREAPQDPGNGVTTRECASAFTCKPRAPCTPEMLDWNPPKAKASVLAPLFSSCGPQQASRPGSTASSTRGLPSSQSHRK

± gives the standard deviation of the averaged measurements. The list shows a part of the results.

Compound in this experiment: Nc1nc2c(ncn2[C@@H]2O[C@H](COP(=O)(O)OP(=O)(O)OP(=O)(O)O)[C@@H](O)[C@H]2O)c(=O)[nH]1 [guanosine triphosphate]
The experiment is described as follows: NP40-soluble protein abundance relative to vehicle (solubility fold change) (ratio); higher = more soluble protein in presence of GTP. The method in brief:
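Eight concentrations, 0.1 to 10 mM, were tested on Jurkat crude lysate for 10 min at room temperature and then 3 min at 37 °C, in three independent experiments. The lysate was solubilised with 0.8% NP40 and benzonase, ultracentrifuged, and the supernatant TMT-labelled for LC-MS/MS. Each value is the fold change against the detergent-processed vehicle in its own replicate, from vsn-normalised intensities.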

In the case of “A0A0D9SGJ6|J3KQV8 and related entries (UniProt O43426)”, the NP40-soluble protein abundance worked out at 1.1 ± 0.041 (concentration: 0.1mM); 1.05 ± 0.095 (concentration: 0.5mM); 0.982 ± 0.044 (concentration: 1mM); 0.994 ± 0.036 (concentration: 2mM); 0.986 ± 0.055 (concentration: 4mM); 0.993 ± 0.017 (concentration: 6mM). Moreover, the NP40-soluble protein abundance came to 0.945 ± 0.023 (concentration: 8mM) and 0.943 ± 0.013 (concentration: 10mM).
Turning to “A0A0R4J2E2|Q9Y3T6 and related entries (UniProt Q9Y3T6)”, the NP40-soluble protein abundance by setting is: (concentration: 0.1mM) 0.88 ± 0.0067; (concentration: 0.5mM) 0.877 ± 0.017; (concentration: 1mM) 0.961 ± 0.019; (concentration: 2mM) 0.923 ± 0.048; (concentration: 4mM) 0.94794 ± 0.00022; (concentration: 6mM) 0.908 ± 0.017. The NP40-soluble protein abundance (concentration: 8mM) stood at 0.89 ± 0.034 and the NP40-soluble protein abundance (concentration: 10mM) was 0.9192 ± 0.0019.
Take “A0A0A0MRN5|Q9NZT2 and related entries (UniProt Q9NZT2)”: the NP40-soluble protein abundance reads like this: (concentration: 0.1mM) 0.928 ± 0.042; (concentration: 0.5mM) 0.925 ± 0.027; (concentration: 1mM) 0.894 ± 0.041; (concentration: 2mM) 0.904 ± 0.023; (concentration: 4mM) 0.878 ± 0.033; (concentration: 6mM) 0.876 ± 0.02. In addition, the NP40-soluble protein abundance by setting is: (concentration: 8mM) 0.844 ± 0.048; (concentration: 10mM) 0.898 ± 0.032.
Take “A0A087WXU0|Q5SZ82 and related entries (UniProt Q9NWS8)”: the NP40-soluble protein abundance is, setting by setting: (concentration: 0.1mM) 1.15 ± 0.051; (concentration: 0.5mM) 1.16 ± 0.056; (concentration: 1mM) 1.03 ± 0.035; (concentration: 2mM) 1.1 ± 0.12; (concentration: 4mM) 0.978 ± 0.097; (concentration: 6mM) 1 ± 0.091. The NP40-soluble protein abundance was 0.991 ± 0.12 (concentration: 8mM) and 0.962 ± 0.022 (concentration: 10mM).
For A0A0A0MR85|Q03013 (UniProt Q03013), the NP40-soluble protein abundance (concentration: 0.1mM) came out at 1.08 ± 0.068; the NP40-soluble protein abundance (concentration: 0.5mM) was 1.07 ± 0.067; the NP40-soluble protein abundance (concentration: 1mM) stood at 1.04 ± 0.078; the NP40-soluble protein abundance (concentration: 2mM) is 1.03 ± 0.14; the NP40-soluble protein abundance (concentration: 4mM) amounted to 0.929 ± 0.058; the NP40-soluble protein abundance (concentration: 6mM) was determined as 0.985 ± 0.071. The NP40-soluble protein abundance (concentration: 8mM) was found to be 1 ± 0.11 and the NP40-soluble protein abundance (concentration: 10mM) stood at 0.989 ± 0.14.
As for “A0A0U1RRK1|F6XEV2 and related entries (UniProt Q9BPX6)”, the NP40-soluble protein abundance by setting is: (concentration: 0.1mM) 1.17 ± 0.11; (concentration: 0.5mM) 1.14 ± 0.072; (concentration: 1mM) 1.09 ± 0.087; (concentration: 2mM) 1.09 ± 0.14; (concentration: 4mM) 1.09 ± 0.17; (concentration: 6mM) 1.14 ± 0.15. Moreover, the NP40-soluble protein abundance by setting is: (concentration: 8mM) 1.15 ± 0.1; (concentration: 10mM) 1.15 ± 0.15.
As to “A0A0A0MS70|A0A0A0MST0|H0Y4G9 and related entries (UniProt Q99836)”, the NP40-soluble protein abundance runs as follows: (concentration: 0.1mM) 1.05 ± 0.15; (concentration: 0.5mM) 1.02 ± 0.13; (concentration: 1mM) 0.916 ± 0.034; (concentration: 2mM) 0.979 ± 0.15; (concentration: 4mM) 0.968 ± 0.14; (concentration: 6mM) 0.929 ± 0.1. Further, the NP40-soluble protein abundance is 0.858 ± 0.13 (concentration: 8mM) and 0.901 ± 0.13 (concentration: 10mM).
Take “A2A274 and related entries (UniProt Q99798)”: the NP40-soluble protein abundance is, setting by setting: (concentration: 0.1mM) 0.988 ± 0.037; (concentration: 0.5mM) 0.995 ± 0.037; (concentration: 1mM) 0.948 ± 0.053; (concentration: 2mM) 0.932 ± 0.066; (concentration: 4mM) 0.916 ± 0.063; (concentration: 6mM) 0.906 ± 0.061. Moreover, the NP40-soluble protein abundance runs as follows: (concentration: 8mM) 0.903 ± 0.061; (concentration: 10mM) 0.869 ± 0.082.
“A0A0G2JLV7|A0A0G2JMI0|A0A0G2JNK8|A0A0G2JNU6|A0A0G2JP18|A0A0G2JQ50|A0A140T8W3|A8MZ84 and related entries (UniProt Q6GTX8)”: the NP40-soluble protein abundance was 0.867 ± 0.023 (concentration: 0.1mM); 0.858 ± 0.035 (concentration: 0.5mM); 0.95 ± 0.056 (concentration: 1mM); 0.942 ± 0.11 (concentration: 2mM); 0.9 ± 0.084 (concentration: 4mM); 0.935 ± 0.068 (concentration: 6mM). The NP40-soluble protein abundance (concentration: 8mM) was 0.889 ± 0.051 and the NP40-soluble protein abundance (concentration: 10mM) is 0.979 ± 0.097.
In the case of “A0A0A0MRL6|F8W8M4 and related entries (UniProt O14639)”, the NP40-soluble protein abundance runs as follows: (concentration: 0.1mM) 0.998 ± 0.047; (concentration: 0.5mM) 1.03 ± 0.021; (concentration: 1mM) 1.04 ± 0.025; (concentration: 2mM) 1.05 ± 0.018; (concentration: 4mM) 1.04 ± 0.022; (concentration: 6mM) 1.11 ± 0.029. Also, the NP40-soluble protein abundance worked out at 1.16 ± 0.017 (concentration: 8mM) and 1.22 ± 0.047 (concentration: 10mM).
“A0A0A0MRW6|Q9H6R4 and related entries (UniProt Q9H6R4)”: the NP40-soluble protein abundance was 1.04 ± 0.059 (concentration: 0.1mM); 1.07 ± 0.16 (concentration: 0.5mM); 1.09 ± 0.041 (concentration: 1mM); 1.28 ± 0.048 (concentration: 2mM); 1.19 ± 0.14 (concentration: 4mM); 1.21 ± 0.23 (concentration: 6mM). In addition, the NP40-soluble protein abundance is, setting by setting: (concentration: 8mM) 1.25 ± 0.21; (concentration: 10mM) 1.53 ± 0.43.
Take “A0A0A0MSB4|Q6ZN50 and related entries (UniProt Q969R2)”: the NP40-soluble protein abundance reads like this: (concentration: 0.1mM) 1.08 ± 0.1; (concentration: 0.5mM) 1.01 ± 0.045; (concentration: 1mM) 1.15 ± 0.11; (concentration: 2mM) 1.03 ± 0.081; (concentration: 4mM) 1.05 ± 0.092; (concentration: 6mM) 1.07 ± 0.073. For the same target, the NP40-soluble protein abundance is, setting by setting: (concentration: 8mM) 1.08 ± 0.06; (concentration: 10mM) 0.953 ± 0.062.
In the case of “A0A087X1I8|Q7Z3E5 and related entries (UniProt Q7Z3E5)”, the NP40-soluble protein abundance by setting is: (concentration: 0.1mM) 1.01 ± 0.049; (concentration: 0.5mM) 1.05 ± 0.042; (concentration: 1mM) 0.999 ± 0.028; (concentration: 2mM) 0.977 ± 0.051; (concentration: 4mM) 0.963 ± 0.051; (concentration: 6mM) 0.934 ± 0.052. In addition, the NP40-soluble protein abundance runs as follows: (concentration: 8mM) 0.95 ± 0.052; (concentration: 10mM) 0.974 ± 0.039.
